Source: patent publication US6117869A, “Compounds for and methods of inhibiting matrix metalloproteinases” (Warner-Lambert Company, priority 1999, dated 2000)
pIC50: −log10 of the molar value. For at least one compound, name, drawing or mass did not settle the structure.

Tests used:
MMP-2CD = experiment: Thiopeptolide assay, gelatinase A catalytic domain (GCD/GaCD); assay type: biochemical; conditions: 1 nM, pH 7.0, 100 μM thiopeptolide substrate
Experimental: (§1) IC50 values were determined using a thiopeptolide substrate, Ac-Pro-Leu-Gly-thioester-Leu-Leu-Gly-OEt (Ye Q. Z., Johnson L. L., Hupe D. J., and Baragi V., "Purification and Characterization of the Human Stromelysin Catalytic Domain Expressed in Escherichia coli," Biochemistry,1992;31:11231-11235). MMP-1, MMP-7, and MMP-13 activity was assayed in a method similar to MMP-2 and MMP-3 (SCD and GCD). MMP-1 can be obtained from Washington University School of Medicine, St. Louis, Mo. MMP-7 can be obtained in accordance with the known procedure set forth by Ye Q. Z., Johnson L. L., and Baragi V., "Gene Syntheses and Expression in E. coli for PUMP, a Human Matrix Metalloproteinase," Biochem. and Biophys. Res. Comm., 1992;186:143-149. MMP13 can be obtained in accordance with the known procedure set forth by Freije J. M. P. et al., "Molecular Cloning and Expression of Collegenase-3, a Novel Human Matrix Metalloproteinase Produced by Breast Carcinomas," J. Bio. Chem., 1994;269:16766-16773.
(§2) Hydrolysis of the thiopeptolide substrate Ac-Pro-Leu-Gly-thioester-Leu-Leu-Gly-OEt (Bachem) is used as the primary screen to determine IC50 values for MMP inhibitors. […] The change in absorbance at 405 nm is monitored on a ThermoMax microplate reader at room temperature continuously for 20 minutes.

MMP-13CD = experiment: Thiopeptolide assay, MMP-13CD; assay type: biochemical, Human; conditions: catalytic domain; thiopeptolide substrate
Experimental: as §1, §2

MMP-14CD = experiment: Thiopeptolide assay, MMP-14CD; assay type: biochemical; conditions: catalytic domain; thiopeptolide substrate
Experimental: as §1, §2

CC(C)[C@H](NS(=O)(=O)c1ccc2c(c1)Sc1ccccc1O2)C(=O)O [Example 4, (S)-3-Methyl-2-(phenoxathiine-2-sulfonylamino)-butyric acid]
pIC50 (MMP-2CD): 7.47
pIC50 (MMP-13CD): 5.39
pIC50 (MMP-14CD): 6.55
